Measurements from article PMC5516001.
Results are given in words; binding and its absence hold for the method and conditions named. Binding can be weak; no strength is given.

Target: HATPase-c domain of WP_011677872.1 (histidine protein kinase encoded by LBUL_RS00115) (Lactobacillus delbrueckii subsp. bulgaricus ATCC BAA-365) (UniProt H2E1G9)
Assay: two-hybrid; S. cerevisiae Y2HGOLD co-transformed with pGBK-HPK0115 (bait) and pGAD-RR0110; growth on SD/-Trp-Leu-His plates with 0.1 mg/mL aureobasidin A (HIS3 and AUR1-C reporters)

binding: binds
Substance: WP_011677871.1 (response regulator encoded by LBUL_RS00110) (from UniProt H2E1H0)
